{"sequences": {"note": "Protein sequences, listed by entry. Tags and fused reporters are not part of them.", "UniProt O14672, whole entry": "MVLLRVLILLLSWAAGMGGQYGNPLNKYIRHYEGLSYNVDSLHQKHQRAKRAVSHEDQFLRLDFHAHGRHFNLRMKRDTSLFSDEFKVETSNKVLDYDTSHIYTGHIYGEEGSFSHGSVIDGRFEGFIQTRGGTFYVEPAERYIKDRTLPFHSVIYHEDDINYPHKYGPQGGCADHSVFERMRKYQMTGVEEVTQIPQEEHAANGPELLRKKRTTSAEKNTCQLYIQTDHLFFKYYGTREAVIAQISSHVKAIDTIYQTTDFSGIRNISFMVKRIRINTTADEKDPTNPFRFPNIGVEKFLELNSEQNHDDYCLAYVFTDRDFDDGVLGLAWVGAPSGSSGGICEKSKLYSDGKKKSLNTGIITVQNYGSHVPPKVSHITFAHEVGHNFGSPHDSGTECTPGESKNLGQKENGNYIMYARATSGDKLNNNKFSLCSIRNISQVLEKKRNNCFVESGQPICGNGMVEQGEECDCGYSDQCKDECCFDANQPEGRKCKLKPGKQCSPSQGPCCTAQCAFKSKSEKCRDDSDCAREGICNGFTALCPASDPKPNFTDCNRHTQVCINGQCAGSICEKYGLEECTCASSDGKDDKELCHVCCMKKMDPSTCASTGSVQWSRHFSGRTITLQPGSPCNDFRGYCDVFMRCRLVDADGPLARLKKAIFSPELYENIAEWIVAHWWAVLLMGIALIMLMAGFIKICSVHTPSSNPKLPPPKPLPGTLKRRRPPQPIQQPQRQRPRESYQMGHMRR"}, "source": "patent US7498358B2", "about": "“Human ADAM-10 inhibitors” (Exelixis, Inc., priority 2001, dated 2009)", "target": "hADAM-10 (UniProt O14672)", "assay": "ADAM-10 enzyme assay: cleavage of fluorogenic 10-residue peptide (DABCYL/EDANS)", "settings": "read-out: ADAM-10 IC50, Table 4, in vitro", "protocol": "mADAM-10 or hADAM-10 activity was measured as the ability to cleave a 10-residue peptide (DABCYL-Leu-Leu-Ala-Gln-Lys-*-Leu-Arg-Ser-Ser-Arg-EDANS). […] Enzyme was diluted to a final active concentration of 5 nM in Buffer A (50 mM HEPES 8.0, 100 mM NaCl, 1 mM CaCl2 and 0.01% NP-40). Serial dilutions for compounds were performed ranging from 100 uM to 0.5 nM using a Beckman Biomek 2000 in polypropylene plates (Greiner). 20 μl of enzyme solution was added to 10 μl of compound in buffer A, and allowed to incubate for 15 min in 384 well black, Greiner, microtiter plates (#781076). 20 μl of substrate (12.5 uM in Buffer A) was then added, resulting in final reaction conditions of 2 nM ADAM-10, 5 μM substrate, and compound concentrations ranging from 20 uM to 0.1 nM. The reaction was incubated for 2 hr at RT, and fluorescence was measured at Ex355, Em460 on a Wallac Victor 2 fluorescence reader. For final analysis of potent inhibitors, a similar reaction was set up with a final active ADAM-10 concentration of 0.1 nM. This reaction was incubated for 16 hr at RT and fluorescence was read using identical conditions.\nInhibition is indicated as IC50 with the following key: A=IC50 less than 50 nM, B=IC50 greater than 50 nM, but less than 1000 nM, C=IC50 greater than […], but less than 20,000 nM, and D=IC50 greater than 20,000 nM.", "note": "pIC50: −log10 of the molar value. Structures were worked out from names or drawings and are uncertain."}
{"smiles": "NC(=N[N+](=O)[O-])NCCCC(NS(=O)(=O)c1ccc(Oc2ccccc2)cc1)C(=O)NO", "note": "(stereo not shown)", "values": [{"measurement": "pIC50", "result": "> 7.30"}]}
